Experimental data: paper PMC7835349 (Communications Biology, 2021)
“And” between values parts separate entries of the source, which are not always exact repeats. Identical values can stand only once. This continues a long series; more values of the same kind are listed elsewhere.

System: telemetered dogs
Assay: Conscious dog telemetry (QRS amplitude and other cardiovascular parameters, tolerability)
[1] = 1.7 mg/kg 0.5h infusion, dog 247, 1.5 hours
[2] = 1.7 mg/kg 0.5h infusion, dog 247, 2 hours
[3] = 1.7 mg/kg 0.5h infusion, dog 247, 3 hours
[4] = 1.7 mg/kg 0.5h infusion, dog 247, 4 hours
[5] = 1.7 mg/kg 0.5h infusion, dog 247, -0.5 hours
[6] = 1.7 mg/kg 0.5h infusion, dog 247, -0.75 hours
[7] = 1.7 mg/kg 0.5h infusion, dog 247, -1 hours
[8] = 1.7 mg/kg 0.5h infusion, dog 247, -[…]
[9] = 1.7 mg/kg 0.5h infusion, dog 247, […]
[10] = 1.7 mg/kg 0.5h infusion, dog 288, 0 hours
[11] = 1.7 mg/kg 0.5h infusion, dog 288, 0.5 hours
[12] = 1.7 mg/kg 0.5h infusion, dog 288, 1 hours
[13] = 1.7 mg/kg 0.5h infusion, dog 288, 1.5 hours
[14] = 1.7 mg/kg 0.5h infusion, dog 288, 2 hours
[15] = 1.7 mg/kg 0.5h infusion, dog 288, 3 hours
[16] = 1.7 mg/kg 0.5h infusion, dog 288, 4 hours
[17] = 1.7 mg/kg 0.5h infusion, dog 288, -0.5 hours
[18] = 1.7 mg/kg 0.5h infusion, dog 288, -0.75 hours
[19] = 1.7 mg/kg 0.5h infusion, dog 288, -1 hours
[20] = 1.7 mg/kg 0.5h infusion, dog 288, -[…]
[21] = 1.7 mg/kg 0.5h infusion, dog 288, […]
[22] = dog, 0.85 mg/kg 0.5h infusion, 0.5 h, 0.85 mg/kg
[23] = dog, 0.85 mg/kg 0.5h infusion, 0.75 h, 0.85 mg/kg

`CN(CCO)CCC(CSc1ccccc1)Nc1ccc(S(=O)(=O)NC(=O)c2ccc(N3CCC(C(O)c4ccccc4-c4ccc(Cl)cc4)CC3)cc2)cc1S(=O)(=O)C(F)(F)F` (stereo not drawn) [AZD4320] was tested, and the “QRS amplitude (% baseline)” value [1] was 92 % baseline, the “Systolic blood pressure (mmHg)” value [1] was 150 mmHg and the “ECG PR interval” value [2] was 89 ms. For the same compound, the “ECG QRS duration” value [2] was 43 ms, the “Left ventricular -dP/dt (mmHg/s)” value [2] was -2331 mmHg/s and the “QRS amplitude (% baseline)” value [2] was 59 % baseline. For the same compound, the “Systolic blood pressure (mmHg)” value [2] was 150 mmHg, the “ECG PR interval” value [3] was 92 ms and the “ECG QRS duration” value [3] was 43 ms. The “Left ventricular -dP/dt (mmHg/s)” value [3] was -1374 mmHg/s, the “QRS amplitude (% baseline)” value [3] was 4.62 % baseline and the “Systolic blood pressure (mmHg)” value [3] was 100 mmHg. The “ECG PR interval” value [4] was 79 ms, the “ECG QRS duration” value [4] was 43 ms and the “Left ventricular -dP/dt (mmHg/s)” value [4] was -1040 mmHg/s. For the same compound, the “QRS amplitude (% baseline)” value [4] was 5 % baseline, the “Systolic blood pressure (mmHg)” value [4] was 70 mmHg and the “ECG PR interval” value [5] was 97 ms. The “ECG QRS duration” value [5] was 43 ms, the “Left ventricular -dP/dt (mmHg/s)” value [5] was -2267 mmHg/s and the “QRS amplitude (% baseline)” value [5] was 101 % baseline. For the same compound, the “Systolic blood pressure (mmHg)” value [5] was 138 mmHg, the “ECG PR interval” value [6] was 96 ms and the “ECG QRS duration” value [6] was 43 ms. For the same compound, the “Left ventricular -dP/dt (mmHg/s)” value [6] was -2278 mmHg/s, the “QRS amplitude (% baseline)” value [6] was 101 % baseline and the “Systolic blood pressure (mmHg)” value [6] was 133 mmHg. The “ECG PR interval” value [7] was 94 ms, the “ECG QRS duration” value [7] was 43 ms and the “Left ventricular -dP/dt (mmHg/s)” value [7] was -2288 mmHg/s. For the same compound, the “QRS amplitude (% baseline)” value [7] was 100 % baseline, the “Systolic blood pressure (mmHg)” value [7] was 132 mmHg and the “ECG PR interval” value [8] was 90 ms. For the same compound, the “ECG QRS duration” value [8] was 43 ms, the “Left ventricular -dP/dt (mmHg/s)” value [8] was -2309 mmHg/s and the “QRS amplitude (% baseline)” value [8] was 99 % baseline. For the same compound, the “Systolic blood pressure (mmHg)” value [8] was 145 mmHg, the “ECG PR interval” value [9] was 82 ms and the “ECG QRS duration” value [9] was 42 ms. The “Left ventricular -dP/dt (mmHg/s)” value [9] was -1583 mmHg/s, the “QRS amplitude (% baseline)” value [9] was 8 % baseline and the “Systolic blood pressure (mmHg)” value [9] was 122 mmHg. For the same compound, the “ECG PR interval” value [10] was 87 ms, the “ECG QRS duration” value [10] was 41 ms and the “Left ventricular -dP/dt (mmHg/s)” value [10] was -2656 mmHg/s. The “QRS amplitude (% baseline)” value [10] was 100 % baseline, the “Systolic blood pressure (mmHg)” value [10] was 140 mmHg and the “ECG PR interval” value [11] was 88 ms. The “ECG QRS duration” value [11] was 42 ms, the “Left ventricular -dP/dt (mmHg/s)” value [11] was -2903 mmHg/s and the “QRS amplitude (% baseline)” value [11] was 80 % baseline. The “Systolic blood pressure (mmHg)” value [11] was 141 mmHg, the “ECG PR interval” value [12] was 89 ms and the “ECG QRS duration” value [12] was 43 ms. For the same compound, the “Left ventricular -dP/dt (mmHg/s)” value [12] was -2836 mmHg/s, the “QRS amplitude (% baseline)” value [12] was 97 % baseline and the “Systolic blood pressure (mmHg)” value [12] was 146 mmHg. The “ECG PR interval” value [13] was 81 ms, the “ECG QRS duration” value [13] was 41 ms and the “Left ventricular -dP/dt (mmHg/s)” value [13] was -2701 mmHg/s. For the same compound, the “QRS amplitude (% baseline)” value [13] was 94 % baseline, the “Systolic blood pressure (mmHg)” value [13] was 145 mmHg and the “ECG PR interval” value [14] was 76 ms. For the same compound, the “ECG QRS duration” value [14] was 39 ms, the “Left ventricular -dP/dt (mmHg/s)” value [14] was -2328 mmHg/s and the “QRS amplitude (% baseline)” value [14] was 32 % baseline. For the same compound, the “Systolic blood pressure (mmHg)” value [14] was 128 mmHg, the “ECG PR interval” value [15] was 95 ms and the “ECG QRS duration” value [15] was 33 ms. The “Left ventricular -dP/dt (mmHg/s)” value [15] was -1423 mmHg/s, the “QRS amplitude (% baseline)” value [15] was 9 % baseline and the “Systolic blood pressure (mmHg)” value [15] was 71 mmHg. The “ECG PR interval” value [16] was 83 ms, the “ECG QRS duration” value [16] was 35 ms and the “Left ventricular -dP/dt (mmHg/s)” value [16] was -1372 mmHg/s. The “QRS amplitude (% baseline)” value [16] was 4.4 % baseline, the “Systolic blood pressure (mmHg)” value [16] was 63 mmHg and the “ECG PR interval” value [17] was 83 ms. The “ECG QRS duration” value [17] was 42 ms, the “Left ventricular -dP/dt (mmHg/s)” value [17] was -2638 mmHg/s and the “QRS amplitude (% baseline)” value [17] was 99 % baseline. For the same compound, the “Systolic blood pressure (mmHg)” value [17] was 149 mmHg, the “ECG PR interval” value [18] was 88 ms and the “ECG QRS duration” value [18] was 42 ms. The “Left ventricular -dP/dt (mmHg/s)” value [18] was -2682 mmHg/s, the “QRS amplitude (% baseline)” value [18] was 100 % baseline and the “Systolic blood pressure (mmHg)” value [18] was 138 mmHg. The “ECG PR interval” value [19] was 89 ms, the “ECG QRS duration” value [19] was 41 ms and the “Left ventricular -dP/dt (mmHg/s)” value [19] was -2727 mmHg/s. For the same compound, the “QRS amplitude (% baseline)” value [19] was 99 % baseline, the “Systolic blood pressure (mmHg)” value [19] was 138 mmHg and the “ECG PR interval” value [20] was 87 ms. The “ECG QRS duration” value [20] was 41 ms, the “Left ventricular -dP/dt (mmHg/s)” value [20] was -2575 mmHg/s and the “QRS amplitude (% baseline)” value [20] was 102 % baseline. The “Systolic blood pressure (mmHg)” value [20] was 135 mmHg, the “ECG PR interval” value [21] was 80 ms and the “ECG QRS duration” value [21] was 38 ms. The “Left ventricular -dP/dt (mmHg/s)” value [21] was -1456 mmHg/s, the “QRS amplitude (% baseline)” value [21] was 16 % baseline and the “Systolic blood pressure (mmHg)” value [21] was 77 mmHg. For the same compound, the “ECG PR interval” value [22] was 80 ms and 88 ms, the “Left ventricular -dP/dt (mmHg/s)” value [22] was 5112 mmHg/s and the “QRS amplitude (% baseline)” value [22] was 104 % baseline. For the same compound, the “Systolic blood pressure (mmHg)” value [22] was 169 mmHg and 176 mmHg, the “ECG PR interval” value [23] was 80 ms and 82 ms and the “ECG QRS duration” value [23] was 36 ms.
